Among all 52,000 sequences or so, about 210 (0.4%) were called active.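 How the source made its calls: active means gene whose silencing raises cell survival under the drug, median off-target-corrected z-score across its silencing RNAs 2 or more; inactive means the rest.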 The list shows a part of the results.
Assay: Resistance to Poly (ADP-Ribose) Polymerase inhibitor: Gene Identification via Genome-wide siRNA Screen
Conditions: mouse BRCA2 R2336H ES cells, olaparib, CellTiter-Glo viability; hits give high values
Method in brief: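 Mouse BRCA2 R2336H ES cells were reverse-transfected with siRNA (20 nM final), treated at 48 h with 500 nM olaparib, and read by CellTiter-Glo after 72 h. Scores: MAD-based z per siRNA, median per gene, seed off-target correction.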

| Sequence | z-score |
| --- | --- |
| GGCCUUGUAUUACCAUCGATT against Ppp1r9b | inactive: 0.523 |
| GGAAUCCUCUUCAGACAAATT against Hivep1 | inactive: 0.392 |
| CCUGACAGACCGACAAGUGTT against Hoxc11 | inactive: -0.816 |
| GGGUGUGGCUGACUUUGAUTT against Otof | inactive: -0.723 |
| GAUGCAAGAUGACAAGACATT against Rgs6 | inactive: 0.614 |
| AAGCCCAUAUACUGAAGGUTT against Klk22 | inactive: -1.3 |
| CGAGGAGUUGGAUUUCAGGTT against Dnmbp | inactive: 1.28 |
| GCCUUCCACUACCUUACGUTT against Kcnk3 | inactive: 2.17 |
| CCCUAACACUGCUACCACGTT against Zfp36l3 | inactive: -0.934 |
| GCAAGGAGGUCCAACUAAGTT against Fzd8 | inactive: -0.568 |
| GGCCAAGAACUCCAAGCAUTT against C130058G22Rik | inactive: -0.283 |
| CCAUUUGUCUAUGAAUGUGTT against Tm6sf1 | inactive: -1.17 |
| GGCAUUUGACCCAGAAGACTT against 1110049B09Rik | inactive: 1.2 |
| GCACCACUGCCUAUAUAAGTT against Acad8 | inactive: -0.0132 |
| GGGUCUAAAGAUAUCUGUUTT against Rbm12 | inactive: -1.38 |
| CGAGAAAGCAUAUAUAAUGTT against C130032J12Rik | inactive: -0.613 |
| CCUUAUUGACAGACGAGAGTT against 1110003E08Rik | inactive: 1.31 |
| CGCUCCAUUGCUCAGUAUUTT against Vtn | inactive: -0.371 |
| GGAAAAUUGAGAUUUCUGCTT against 1110003E01Rik | inactive: 1.52 |
| GGCUUUACAGAUGUUAAAUTT against Ak3l | inactive: 0.84 |
| CCAAACUAUACUGACAGGUTT against Ppp4r2 | inactive: -1.52 |
| GGAAAUGAUAUUUGCCUGATT against 1110012L19Rik | inactive: -1.05 |
| CCAAGUCACGCACCAAAAATT against Zfp64 | inactive: -3.37 |
| GGCUUCAUCAAGGUUCAGCTT against Rassf1 | inactive: 0.915 |
| GGGAAGCUUUUCUUAUCAGTT against V1rb6 | inactive: 0.64 |
| GGCCCAAACACGUGUAAAATT against Jarid1b | inactive: 1.71 |

| Sequence | z-score |
| --- | --- |
| GCCUGGUGGAAUAAGAAUUTT against BC005682 | inactive: 0.0532 |
| GGCAAUUACCCACCCUGUUTT against 2210010L05Rik | inactive: -0.701 |
| CGUCCUGUCGCUGAUUAAATT against Tcl1 | inactive: -0.297 |
| GGAAUUCAGCUUUGUGCAATT against Asl | inactive: 0.319 |
| GCCUGUCUGCCUUUGCUUCTT against Hist1h4i | inactive: -0.715 |
| GGAAAACAUUAAGAGUACATT against Kdelr3 | inactive: 0.126 |
| GGUAGCUAUUAUCAACAACTT against Prss21 | inactive: 1.57 |
| GGAUAAUGUGAUAACACUCTT against BC025575 | inactive: -0.262 |
| GUAUGCCCACAUUCCAGACTT against Npff | inactive: -0.0083 |
| GGAGUUCUUGGAGCAUCAGTT against Zfp526 | inactive: -1.02 |
| GGAGAUUCAGAAUUACUGATT against Ccm1 | inactive: -0.31 |
| CCUCCUGUUUUUUUCUGUGTT against Olfr96 | inactive: -0.29 |
| CAAAGCAUGUAACAUCCAATT against Cfhrb_4/2 | inactive: -0.885 |
| GGAGAUCCAAUGAACCUACTT against 4932414J04 | inactive: 0.41 |
| GCCUUUAUUAAGGUUGAAATT against Vcl | inactive: 0.498 |
| GGUUGACUGAAUGAUGGAATT against Tcl1b3 | inactive: 0.81 |
| GCCUGUGUGAUUGCUUCAGTT against Plac8 | inactive: -2.47 |
| GGGACCAAAGGAAACUUCATT against Eif2s3y | inactive: -2.97 |
| CCAACCUAAACCAUGUACATT against BC030476 | inactive: 0.0751 |
| GGUUCAGCUGACGUAAAAATT against LOC434439 | inactive: 0.3 |
| GCUAUCGAUUGUUACACCGTT against Adrb2 | inactive: 0.862 |
| GGCAAAUCAUUGAUCAGAATT against Mtrf1 | inactive: -1.16 |
| GGACAACUAUUUUGUGAGATT against Kcnj9 | inactive: -0.186 |
| GGUUAUCGGUUGUACAUAUTT against Chd3 | inactive: 1.71 |
| GGGAAAAAAAAGCUCUUAATT against Usp43 | inactive: 0.284 |
| CCUGGUUAUAACUCUAAAGTT against Rad54l | inactive: -0.821 |

A portion from further up, as a working copy:

| Sequence | z-score |
| --- | --- |
| GGAAUCCUCUUCAGACAAATT against Hivep1 | inactive: 0.392 |
| CCUGACAGACCGACAAGUGTT against Hoxc11 | inactive: -0.816 |
| GGGUGUGGCUGACUUUGAUTT against Otof | inactive: -0.723 |
| GAUGCAAGAUGACAAGACATT against Rgs6 | inactive: 0.614 |
